Data source: PubChem BioAssay AID504786 (Drosophila RNAi Screening Center, 2011)

Assay: 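Positive regulators of HIF-driven reporter output in Drosophila cells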 (primary screen)
Cells: Drosophila S2 cells with a stable HIF luciferase reporter
Knock-down reagent: long dsRNA against Drosophila genes, about 0.2 µg dsRNA per well of a 384-well plate
Timing: three days of knock-down, then 20 h of DFO before reading
Treatment: desferrioxamine (DFO) at 100 µM, an iron chelator that mimics hypoxia, for 20 h
Measured: 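HIF reporter luminescence in cells given 100 µM DFO for 20 h, using the mouse ldh-a hypoxia-response element, scored as per-plate z-scores; higher means greater loss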
Scale: z-score: higher = stronger loss of HIF reporter signal
The screen tested about 21,000 reagents; this is an unselected part of those with a known target gene and a result. 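Primary screen; positive scores mean lost reporter signal, so the sign may be inverted from the usual convention.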 Reagents against one gene are numbered here. Names joined by + are all predicted targets of the reagent. Further read-outs or replicates are left out here.

{"gene":"CG7950 + Rpp14a","reagent no.":1,"z-score, replicate 1":-0.3}
{"gene":"CG32762","reagent no.":1,"z-score, replicate 1":-0.3}
{"gene":"Brd (Bearded)","reagent no.":1,"z-score, replicate 1":-0.3}
{"gene":"CG13877 + pyx","reagent no.":1,"z-score, replicate 1":-0.4}
{"gene":"CG6012","reagent no.":1,"z-score, replicate 1":0}
{"gene":"CG3355","reagent no.":1,"z-score, replicate 1":0}
{"gene":"Pfas (Phosphoribosylformylglycinamidine synthase)","reagent no.":1,"z-score, replicate 1":-0.3}
{"gene":"tws (twins)","reagent no.":1,"z-score, replicate 1":0.7}
{"gene":"tws (twins)","reagent no.":2,"z-score, replicate 1":0.3}
{"gene":"wrapper","reagent no.":1,"z-score, replicate 1":-0.1}
{"gene":"CG13070","reagent no.":1,"z-score, replicate 1":-0.3}
{"gene":"CG18449","reagent no.":1,"z-score, replicate 1":-0.2}
{"gene":"CG14439","reagent no.":1,"z-score, replicate 1":-0.3}
{"gene":"CG30109 + CG30108","reagent no.":1,"z-score, replicate 1":0.1}
{"gene":"CG17475","reagent no.":1,"z-score, replicate 1":-0.4}
{"gene":"CG31038","reagent no.":1,"z-score, replicate 1":-0.3}
{"gene":"CG31038","reagent no.":2,"z-score, replicate 1":-0.2}
{"gene":"CG31038","reagent no.":3,"z-score, replicate 1":-0.3}
{"gene":"CG13793","reagent no.":1,"z-score, replicate 1":-0.3}
{"gene":"Notum","reagent no.":1,"z-score, replicate 1":-0.2}
{"gene":"qkr58E-1 (quaking related 58E-1)","reagent no.":1,"z-score, replicate 1":-0.2}
{"gene":"CG1307","reagent no.":1,"z-score, replicate 1":-0.4}
{"gene":"CG34386","reagent no.":1,"z-score, replicate 1":1.8}
{"gene":"CG34386","reagent no.":2,"z-score, replicate 1":-0.4}
{"gene":"l(1)G0469 (lethal (1) G0469)","reagent no.":1,"z-score, replicate 1":-0.4}
{"gene":"l(1)G0469 (lethal (1) G0469)","reagent no.":2,"z-score, replicate 1":-0.3}
{"gene":"eIF3d2 (eukaryotic translation initiation factor 3 subunit d2)","reagent no.":1,"z-score, replicate 1":-0.1}
{"gene":"tomboy40","reagent no.":1,"z-score, replicate 1":-0.3}
{"gene":"Naglu (N-acetyl-alpha-glucosaminidase)","reagent no.":1,"z-score, replicate 1":-0.2}
{"gene":"CG6656","reagent no.":1,"z-score, replicate 1":-0.3}
{"gene":"CG34337","reagent no.":1,"z-score, replicate 1":-0.3}
{"gene":"CG10376","reagent no.":1,"z-score, replicate 1":-0.4}
{"gene":"CG33259","reagent no.":1,"z-score, replicate 1":-0.3}
{"gene":"Phyhd1 (Phytanoyl-CoA dioxygenase domain containing 1)","reagent no.":1,"z-score, replicate 1":-0.5}
{"gene":"CG13991","reagent no.":1,"z-score, replicate 1":-0.4}
{"gene":"vig2","reagent no.":1,"z-score, replicate 1":0}
{"gene":"CG13855","reagent no.":1,"z-score, replicate 1":0.2}
{"gene":"alphaTub84D (alpha-Tubulin at 84D)","reagent no.":1,"z-score, replicate 1":0.8}
{"gene":"Crag","reagent no.":1,"z-score, replicate 1":-0.4}
{"gene":"wda (will decrease acetylation)","reagent no.":1,"z-score, replicate 1":-0.5}

Not a retest: 3 of the entries above.
{"gene":"l(1)G0469 (lethal (1) G0469)","reagent no.":1,"z-score, replicate 1":-0.4}
{"gene":"l(1)G0469 (lethal (1) G0469)","reagent no.":2,"z-score, replicate 1":-0.3}
{"gene":"eIF3d2 (eukaryotic translation initiation factor 3 subunit d2)","reagent no.":1,"z-score, replicate 1":-0.1}
